Results are given in words; binding and its absence hold for the method and conditions named. Some results given as binding are weak or reduced against the parent protein; the word gives no strength. Blank lines part the entries; values can stand above or below the binder they belong to.
What was measured:
intact human FGF21 [1] = target: T1, intact human FGF21 (human, UniProt Q9NSA1 29-209); test: pairwise sandwich ELISA, intact FGF21; capture mAb9, detector BAF2539 (biotinylated goat pAb); XX: OD > 1
T1 construct: also called full-length, uncleaved FGF21; iFGF21
T1 sequence: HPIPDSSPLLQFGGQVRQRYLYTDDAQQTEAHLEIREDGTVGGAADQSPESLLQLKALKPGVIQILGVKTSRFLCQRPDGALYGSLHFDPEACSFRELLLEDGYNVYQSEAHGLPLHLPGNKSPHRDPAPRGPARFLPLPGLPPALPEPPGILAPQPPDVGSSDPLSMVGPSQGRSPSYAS

intact human FGF21 [2] = target: T1, intact human FGF21; test: pairwise sandwich ELISA, 653 pg/mL FGF21, average of intact and FAP-cleaved FGF21; capture mAb9, detector BIO-16; X: 0.5 < OD < 1.5
intact human FGF21 [3] = target: T1, intact human FGF21; test: pairwise sandwich ELISA, intact FGF21; capture mAb9, detector BIO-11 (biotinylated mAb11); XX: OD > 1
intact human FGF21 [4] = target: T1, intact human FGF21; test: pairwise sandwich ELISA, intact FGF21; capture mAb9, detector BIO-1 (biotinylated mAb1); XX: OD > 1
intact human FGF21 [5] = target: T1, intact human FGF21; test: pairwise sandwich ELISA, intact FGF21; capture mAb9, detector BIO-10 (biotinylated mAb10); XX: OD > 1
intact human FGF21 [6] = target: T1, intact human FGF21; test: sandwich ELISA, mAb4 or mAb9 capture, mAb11 detector (FIG. 2)
intact human FGF21 [7] = target: T1, intact human FGF21; test: pairwise sandwich ELISA, 653 pg/mL FGF21, average of intact and FAP-cleaved FGF21; capture mAb9, detector BIO-11; XX: OD > 1.5
intact human FGF21 [8] = target: T1, intact human FGF21; test: pairwise sandwich ELISA, 653 pg/mL FGF21, average of intact and FAP-cleaved FGF21; capture mAb9, detector BIO-15; XX: OD > 1.5
intact human FGF21 [9] = target: T1, intact human FGF21; test: pairwise sandwich ELISA, 653 pg/mL FGF21, average of intact and FAP-cleaved FGF21; capture mAb15, detector BIO-11; X: 0.5 < OD < 1.5
intact human FGF21 [10] = target: T1, intact human FGF21; test: total FGF21 sandwich ELISA, mAb4 capture and mAb15 detector
intact human FGF21 [11] = target: T1, intact human FGF21; test: pairwise sandwich ELISA, 653 pg/mL FGF21, average of intact and FAP-cleaved FGF21; capture mAb15, detector BIO-4; XX: OD > 1.5
intact human FGF21 [12] = target: T1, intact human FGF21; test: Simoa bead sandwich assay, mAb4 beads and 0.8 µg/mL biotinylated mAb15
intact human FGF21 [13] = target: T1, intact human FGF21; test: Simoa bead sandwich assay, mAb4 beads, tested as detector
intact human FGF21 [14] = target: T1, intact human FGF21; test: Simoa bead sandwich assay, mAb4 beads and biotinylated mAb15
intact human FGF21 [15] = target: T1, intact human FGF21; test: pairwise sandwich ELISA, intact FGF21; capture mAb11, detector BIO-4 (biotinylated mAb4); XX: OD > 1
intact human FGF21 [16] = target: T1, intact human FGF21; test: pairwise sandwich ELISA, intact FGF21; capture mAb11, detector BIO-9 (biotinylated mAb9); XX: OD > 1
intact human FGF21 [17] = target: T1, intact human FGF21; test: pairwise sandwich ELISA, intact FGF21; capture mAb11, detector BAF2539 (biotinylated goat pAb); XX: OD > 1
intact human FGF21 [18] = target: T1, intact human FGF21; test: pairwise sandwich ELISA, intact FGF21; capture mAb11, detector BIO-13 (biotinylated mAb13); X: OD < 1
intact human FGF21 [19] = target: T1, intact human FGF21; test: pairwise sandwich ELISA, 653 pg/mL FGF21, average of intact and FAP-cleaved FGF21; capture mAb11, detector BIO-4; XX: OD > 1.5
intact human FGF21 [20] = target: T1, intact human FGF21; test: pairwise sandwich ELISA, 653 pg/mL FGF21, average of intact and FAP-cleaved FGF21; capture mAb11, detector BIO-15; XX: OD > 1.5
intact human FGF21 [21] = target: T1, intact human FGF21; test: pairwise sandwich ELISA, 653 pg/mL FGF21, average of intact and FAP-cleaved FGF21; capture mAb4, detector BIO-15; XX: OD > 1.5
intact human FGF21 [22] = target: T1, intact human FGF21; test: pairwise sandwich ELISA, 653 pg/mL FGF21, average of intact and FAP-cleaved FGF21; capture mAb4, detector BIO-11; XX: OD > 1.5
intact human FGF21 [23] = target: T1, intact human FGF21; test: pairwise sandwich ELISA, intact FGF21; capture mAb4, detector BIO-1 (biotinylated mAb1); XX: OD > 1
intact human FGF21 [24] = target: T1, intact human FGF21; test: pairwise sandwich ELISA, intact FGF21; capture mAb4, detector BIO-11 (biotinylated mAb11); XX: OD > 1
intact human FGF21 [25] = target: T1, intact human FGF21; test: pairwise sandwich ELISA, intact FGF21; capture mAb4, detector BAF2539 (biotinylated goat pAb); XX: OD > 1
intact human FGF21 [26] = target: T1, intact human FGF21; test: pairwise sandwich ELISA, 653 pg/mL FGF21, average of intact and FAP-cleaved FGF21; capture mAb4, detector BIO-16; X: 0.5 < OD < 1.5
intact human FGF21 [27] = target: T1, intact human FGF21; test: pairwise sandwich ELISA, intact FGF21; capture mAb4, detector BIO-10 (biotinylated mAb10); XX: OD > 1

binding (intact human FGF21 [1]): binds
binding (intact human FGF21 [2]): binds
binding (intact human FGF21 [3]): binds
binding (intact human FGF21 [4]): binds
binding (intact human FGF21 [5]): binds
binding (intact human FGF21 [6]): binds
binding (intact human FGF21 [7]): binds
binding (intact human FGF21 [8]): binds
B1: mAb9 (antibody, V domains shown)
VH: EVQLQQSGPELVKPGASVKIPCKASGYTFTDYYMGWVKQSHGKSLEWIGDINPNNGVTINNQNFKGKATLTVDKSSSTAYMELRSLASEDTAVYYCTRGYGGALDYWGQGTSVTVSS
VL: DIQMTQSPASLSASVGETVIITCRASENIYSYLAWYQQKQGKSPQLLVYNIRTLAEGVPSRFSGSGSGTQFSLKINSLQPEDFGSYYCQHHYDSPWTFGGGTKLEIKR
notes: also called BIO-9 (biotinylated); antibody 9

binding (intact human FGF21 [9]): binds
binding (intact human FGF21 [10]): binds
binding (intact human FGF21 [11]): binds
binding (intact human FGF21 [12]): binds
binding (intact human FGF21 [13]): binds
binding (intact human FGF21 [14]): binds
B2: mAb15 (antibody, V domains shown)
VH: QVQLIQSGPGLVQPSQSLSITCTVSGFSLTGYAIHWVRQSPGKGLEWLGMIWKSGNTDYNAAFMSRLSITKDNSKSQVFFKMNSLQADDTAIYYCARNGYDYEFVYWGQGTLVTVSA
VL: DVLMTQTPLSLPVSLGDQASISCRSSQIIVHNNGDTYLEWYLQKPGQSPKLLIYKISNRFSGVPDRFSGSGSGTDFTLKISRVEAEDLGVYYCFQGSHVPYTFGGGTKLEIKR
notes: Biotinylated when used as detector; also called BIO-15 (biotinylated); mAb15-Biotin

binding (intact human FGF21 [15]): binds
binding (intact human FGF21 [16]): binds
binding (intact human FGF21 [17]): binds
binding (intact human FGF21 [18]): binds
binding (intact human FGF21 [19]): binds
binding (intact human FGF21 [13]): binds
binding (intact human FGF21 [6]): binds
binding (intact human FGF21 [20]): binds
B3: mAb11 (antibody, V domains shown)
VH: QVQLQQSGAELARPGASVKLSCKASGYTFTNYGISWVKQRTGQGLEWIGEIYPRSDNTYYNEKFKGKATLTADKSSSTAYMELRSLTSEDSAVYFCTRSDYGFFDYWGQGTTLTVSS
VL: QIVLTQSPALMSASPGERVTMTCSAGSSVSYMYWYQQKPRSSPKPWIYLTSNLASGVPARFSGSGSGTSYSLTISSMEAEDAATYYCQQWSSNPRTFGGGTKLEIKR
notes: Biotinylated when used as detector; also called BIO-11 (biotinylated); antibody 11

binding (intact human FGF21 [21]): binds
binding (intact human FGF21 [10]): binds
binding (intact human FGF21 [22]): binds
binding (intact human FGF21 [12]): binds
binding (intact human FGF21 [23]): binds
binding (intact human FGF21 [24]): binds
binding (intact human FGF21 [25]): binds
binding (intact human FGF21 [26]): binds
binding (intact human FGF21 [14]): binds
binding (intact human FGF21 [6]): binds
binding (intact human FGF21 [27]): binds
B4: mAb4 (antibody, V domains shown)
VH: EVKLVESGGDLVKPGGSLKLSCAASGFTFSSYGMSWVRQTPDKRLEWVATISTGGGYTYYPDSVKGRFTISRDNAKNTLYLQMSSLRSEDTAMYYCARHDLVDWYFDVWGTGTTVTVSS
VL: QIVLTQSPAIMSAPLGERVTMTCTASSSVSSSYLHWYQQKPGSSPKVWIYRTTNLASGVPTRFSGSGSGTSYSLTISSMEAEDAATYYCHQYHRSPPTWTFGGGTKLEIKR
notes: Biotinylated when used as detector, coupled to beads in the Simoa assays; also called BIO-4 (biotinylated); antibody 4
